Laboratory results taken from patent US6147076A, “Analogues of N-acetylardeemin, method of preparation and uses thereof” (priority 1996, dated 2000).

Experiments:
CCRF-CEM cells = assay: Two drug combination study of vinblastine and 5-N-acetylardeemin on CCRF-CEM, 72 hr, XTT assay; format: cell-based, human; conditions: Table 2, drug alone
Text: CCRF-CEM Cell Line at 72-HR Exposure Time. Based on XTT

[1] = system: vinblastine-resistant CCRF-CEM cells (CCRF-CEM/VBL100); assay: Two drug combination study of vinblastine and 5-N-acetylardeemin on vinblastine-resistant CCRF-CEM, 72 hr, XTT assay; format: cell-based, human
Text: Vinblastine-resistant CCRF-CEM Cell Line at 72-HR Exposure Time.
Based on XTT Assay. (large-scale study)

Structure (SMILES)	m (slope of median-effect plot) (CCRF-CEM cells)	m ([1]; Table 3, drug alone)	m ([1]; Table 4, drug alone)
C=CC(C)(C)C12CC3c4nc5ccccc5c(=O)n4C(C)C(=O)N3C1N(C(C)=O)c1ccccc12 (stereo not drawn) [5-N-Acetylardeemin]	.78648	1.233	1.101
CC[C@]1(O)C[C@@H]2CN(CCc3c([nH]c4ccccc34)[C@@](C(=O)OC)(c3cc4c(cc3OC)N(C)[C@H]3[C@@](O)(C(=O)OC)[C@H](OC(C)=O)[C@]5(CC)C=CCN6CC[C@]43[C@@H]65)C2)C1 [Vinblastine, reference compound]	2.535	2.392	1.73

For part of these data: Some results come without the dose or concentration used.
